According to publication PMC7092591:
These are yes or no findings as the source states them, for the method shown. Binding seen in cells or lysates may run through a third protein. A yes stands for co-enrichment or nearness to the bait. Other partners may have been found.

Chains of the proteins cited; added tags and fusions are not shown.
UniProt P60281: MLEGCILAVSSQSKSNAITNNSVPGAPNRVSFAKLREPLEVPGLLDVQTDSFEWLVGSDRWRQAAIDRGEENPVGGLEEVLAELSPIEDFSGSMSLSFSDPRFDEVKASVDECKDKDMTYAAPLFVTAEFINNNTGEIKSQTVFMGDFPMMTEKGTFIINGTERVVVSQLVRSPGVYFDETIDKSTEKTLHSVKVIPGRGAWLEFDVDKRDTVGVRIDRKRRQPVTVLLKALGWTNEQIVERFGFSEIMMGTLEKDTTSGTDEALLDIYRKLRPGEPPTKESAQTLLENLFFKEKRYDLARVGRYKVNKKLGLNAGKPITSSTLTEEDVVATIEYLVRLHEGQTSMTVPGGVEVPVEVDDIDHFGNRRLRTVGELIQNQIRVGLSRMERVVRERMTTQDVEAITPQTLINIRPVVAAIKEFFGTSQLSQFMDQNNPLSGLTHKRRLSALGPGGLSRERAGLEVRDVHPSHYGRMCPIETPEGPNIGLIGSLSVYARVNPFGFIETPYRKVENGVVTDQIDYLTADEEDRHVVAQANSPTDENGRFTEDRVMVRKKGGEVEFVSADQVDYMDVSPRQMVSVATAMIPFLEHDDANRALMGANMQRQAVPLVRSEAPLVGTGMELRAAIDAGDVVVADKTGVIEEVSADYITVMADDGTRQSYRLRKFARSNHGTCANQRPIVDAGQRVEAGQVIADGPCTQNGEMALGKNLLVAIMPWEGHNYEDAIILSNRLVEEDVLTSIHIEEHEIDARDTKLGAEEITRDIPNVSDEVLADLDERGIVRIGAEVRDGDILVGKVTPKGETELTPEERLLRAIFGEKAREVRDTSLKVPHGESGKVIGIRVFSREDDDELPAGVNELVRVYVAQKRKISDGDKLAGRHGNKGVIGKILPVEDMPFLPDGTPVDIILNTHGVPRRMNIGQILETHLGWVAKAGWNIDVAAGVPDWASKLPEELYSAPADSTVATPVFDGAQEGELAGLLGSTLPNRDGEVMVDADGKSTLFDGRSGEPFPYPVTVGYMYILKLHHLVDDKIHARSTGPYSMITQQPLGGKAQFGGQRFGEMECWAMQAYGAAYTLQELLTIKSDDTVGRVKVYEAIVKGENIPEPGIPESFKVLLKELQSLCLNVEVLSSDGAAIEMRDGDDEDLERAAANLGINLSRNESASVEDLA
UniProt Q59553: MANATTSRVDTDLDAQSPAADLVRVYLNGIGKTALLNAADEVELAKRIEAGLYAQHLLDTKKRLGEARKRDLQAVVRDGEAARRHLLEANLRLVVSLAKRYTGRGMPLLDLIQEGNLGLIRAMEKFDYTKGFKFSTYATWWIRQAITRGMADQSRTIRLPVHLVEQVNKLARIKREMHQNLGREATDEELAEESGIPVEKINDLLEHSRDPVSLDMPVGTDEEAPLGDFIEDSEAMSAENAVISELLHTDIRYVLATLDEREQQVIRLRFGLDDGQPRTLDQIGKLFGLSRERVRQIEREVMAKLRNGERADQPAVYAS

Molecular target: RNA polymerase β-subunit (M. smegmatis (endogenous in M. smegmatis mc2155)) (UniProt P60281)
Assay: affinity purification with mass spectrometry; M. smegmatis cultures treated with 1% formaldehyde (10 min, 37 °C), lysed, treated with micrococcal nuclease and RNAse A; anti-RNAP β-subunit antibody on Protein G Dynabeads, 2 h at 4 °C; washes up to 750 mM NaCl and 250 mM LiCl; on-bead tryptic digestion, LC-MS/MS; controls: bare Protein G Dynabeads and anti-MYH7 antibody; biological triplicate

Substance: MysB (from UniProt Q59553 1-319)
- binding: binds
